Data: publication doi:10.1101/251975
Results are given in words; binding and its absence hold for the method and conditions named. Binding seen in cells or lysates may run through a third protein. Some binding calls cover weakened binding; strength is not graded here.

The chains behind the UniProt entries cited, without tags or fusion partners.
UniProt O49686: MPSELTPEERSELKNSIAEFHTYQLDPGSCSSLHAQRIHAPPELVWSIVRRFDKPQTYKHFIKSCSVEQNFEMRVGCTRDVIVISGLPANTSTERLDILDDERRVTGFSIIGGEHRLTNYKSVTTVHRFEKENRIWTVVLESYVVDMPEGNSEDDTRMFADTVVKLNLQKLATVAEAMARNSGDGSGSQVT

T1: YC-PP2CA (Arabidopsis thaliana) (UniProt P49598)
T1 sequence: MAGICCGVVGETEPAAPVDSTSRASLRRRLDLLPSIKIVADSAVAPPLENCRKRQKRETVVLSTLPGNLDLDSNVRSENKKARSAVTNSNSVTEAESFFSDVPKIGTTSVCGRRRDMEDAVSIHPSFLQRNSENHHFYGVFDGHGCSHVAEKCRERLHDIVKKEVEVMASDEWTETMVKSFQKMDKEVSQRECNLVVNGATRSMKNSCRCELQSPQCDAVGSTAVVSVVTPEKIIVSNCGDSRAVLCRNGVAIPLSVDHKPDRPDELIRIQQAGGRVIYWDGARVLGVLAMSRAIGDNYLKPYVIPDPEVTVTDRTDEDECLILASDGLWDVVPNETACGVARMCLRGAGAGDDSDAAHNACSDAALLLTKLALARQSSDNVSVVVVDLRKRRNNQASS


Target: T1, YC-PP2CA (Arabidopsis thaliana)
Experiment: split reporter

Row | Molecule | binding
1 | YN-PYR1 (from UniProt O49686 1-191) (receptor) | binds
2 | YN-WNK8 (enzyme, UniProt Q944Q0 1-563) MASGSGFLGQISSMEEADFAEKDPSGRYIRYDDVLGRGAFKTVYKAFDEVDGIEVAWNLVSIEDVMQMPGQLERLYSEVHLLKALKHENIIKLFYSWVDEKNKTINMITELFTSGSLRVYRKKHRKVDPKAIKNWARQILKGLNYLHSQNPPVIHRDLKCDNIFVNGNTGEVKIGDLGLATVLQQPTARSVIGTPEFMAPELYEEEYNELVDIYSFGMCMLEMVTCEYPYNECRNQAQIYKKVTSNIKPQSLGKVDDPQVRQFIEKCLLPASSRPTALELSKDPFLARDGGKDSALLASSSTSSKYVRPPQLEHLPMDVDHNENKSVSSNEDYPWSQTIELQRIAENKEFRLRGERSDDVTASMVLRIADPSGKCRIVHFAFYLESDTATAIAEEMVEELHLTSQEVVVIADMIDDFIMQLLSDRTSSHHNQNSPRLTHEDHEAANQQTVNSKDEEAAGQSMKSDISADYYFPYSANDGNAAMEAGRDAESMSSYLDSCSMMSTIYNLSISDNDYPEDLKTELNLIESQFNQSFQDLLKLKEDAIENAKRKWITKKQKAVNIS | binds
